Measurements published in PubChem BioAssay AID2685 (National Center for Advancing Translational Sciences (NCATS), 2010).
The other results are listed elsewhere or left out. These are further read-outs of the screen, such as a control signal, another cell line or another target. No call is given for them. Compounds called inactive in the main read-out are mostly missing here. Potencies come from curve fits of mixed quality, noted in brackets.

Experiment: qHTS Assay for Lipid Storage Modulators in Drosophila S3 Cells;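 on cell number change: cells counted by Cell Tracker Red CMTPX staining in the red channel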
Settings: BODIPY lipid droplet fluorescence, 18-24 h; for cell number change: measured here: cell count max response, cells fed with added oleic acid
Outline: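 Drosophila S3 cells loaded with oleic acid (400 uM, as added) and compounds at several concentrations; lipid droplets imaged by 488-nm laser-scanning cytometry, 500–530 nm intensity and object ratio to cell channel. Percent activity normalized to 20 uM Triacsin C.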

[1] = measured here: cell number channel AC50, cells fed with added oleic acid
[2] = measured here: lipid fluorescence (Fed channel) AC50, cells fed with added oleic acid

| SMILES | cell number change [%] | AC50 [1] | AC50 [2] |
| --- | --- | --- | --- |
| CC(C)n1nc(C(=O)Nc2nnc(SCc3c(Cl)cccc3Cl)s2)c2ccccc2c1=O | 72.4 | 5.17 µM [rising, partial curve] |  |
| CCCCc1nc2ccccc2[nH]1 |  |  | 0.0058 µM [falling, full curve, poor fit] |
| CC(C)c1ccc(NC2CCCN(C(=O)c3ccncc3)C2)cc1 (stereo not drawn) | 141 | 20.6 µM [rising, partial curve] |  |
| COCCOC(=O)c1c(C)n(C)c2ccc(OC(=O)c3ccco3)cc12 |  | 2.91 µM [rising, single point] | 3.66 µM [rising, partial curve, poor fit] |
| CCOC(=O)C1=C(C)N=C2c3ccccc3C(=O)C2C1c1ccccc1 (stereo not drawn) | 124 | 0.651 µM [rising, single point] | 29.1 µM [rising, single point] |
| Cc1ccc(NC(=O)c2cccc(S(=O)(=O)N3CCN(c4ccc(F)cc4)CC3)c2)nc1 |  |  | 29.1 µM [falling, single point] |
| COc1ccc(-c2nc3ccccc3c(=O)n2-c2c(C)n(C)n(-c3ccccc3)c2=O)cc1 | 6.47 | 0.461 µM [rising, partial curve, poor fit] |  |
| CCc1ccc[n+](-c2[nH]c(=O)sc2/C=N/N=C(\N)[O-])c1 | -11.5 | 0.82 µM [falling, full curve, poor fit] | 0.461 µM [falling, single point] |
| Cc1ccc(S(=O)(=O)N2[C@@H](c3ccc(F)cc3)C(C(=O)O)=CC[C@H]2c2cccc(Cl)c2)cc1 | -1.86 |  | 16.4 µM [rising, partial curve, poor fit] |
| Cc1ccc(OCc2cc(C(=O)N3CCCC(O)C3)no2)cn1 (stereo not drawn) | -9.91 |  | 6.51 µM [rising, single point] |
| S=C1NCN(CCc2ccccc2)CN1 | -27.2 | 4.11 µM [falling, full curve, poor fit] | 16.4 µM [falling, single point] |
| CC(=O)c1ccc(NC(=S)NCCCn2ccnc2)cc1 | 39.9 | 0.517 µM [rising, partial curve, poor fit] | 1.84 µM [rising, full curve] |
| CC(=O)NC(c1ccc(C)cc1)c1cc(Cl)c2cccnc2c1O (stereo not drawn) | -33 | 23.1 µM [falling, single point] | 29.1 µM [falling, single point] |
| N#Cc1nc(-c2ccccc2)oc1NCCN1CCCCC1 | 24.1 |  |  |
| CC(OC(=O)Cc1c(F)cccc1Cl)C(=O)NC1CCCCC1C (stereo not drawn) |  |  | 29.1 µM [falling, single point] |
| O=[N+]([O-])c1cc(S(=O)(=O)N2CCCC2)ccc1N/N=C/c1cccnc1 | 0.0569 | 6.51 µM [falling, single point] | 1.16 µM [rising, single point] |
| COc1cccc(CNC(=O)C2CCN(S(=O)(=O)c3cnc[nH]3)CC2)c1 | 0.135 |  | 0.0517 µM [falling, full curve, poor fit] |
| CC(=O)C[C@H](O)CC(=O)[C@@H]1OC(=O)CCCCCCc2ccccc21 | -12.2 |  | 0.82 µM [rising, full curve] |
| Cc1nc2cc3nc(C)sc3cc2s1 | -0.154 |  | 0.082 µM [rising, partial curve, poor fit] |

| SMILES | cell number change [%] | AC50 [1] | AC50 [2] |
| --- | --- | --- | --- |
| O=C1CCCN1C(=O)COc1ccccc1[N+](=O)[O-] | -6.5 |  |  |
| Cc1cc(NC(=O)CSc2nnc(NCc3ccccc3)s2)no1 | -17 |  | 0.326 µM [falling, full curve] |
| Cc1ccc(C)c(N2CCN(C(=O)c3ccc(Cn4c(=S)[nH]c5ccc(N6CCOCC6)cc5c4=O)cc3)CC2)c1 | 65.4 | 8.2 µM [rising, partial curve] |  |
| Cc1ccc(NC(=O)CCNC(=O)Cn2ccc3ccccc3c2=O)cc1F | 11.3 |  | 11.6 µM [falling, single point] |
| CCOC(=O)c1c(-c2cccs2)csc1NC(=O)COC(=O)c1c(C)noc1C | -18.6 |  |  |
| O=S(=O)(c1ccc(NC2CCCCC2)cc1)N1CCOCC1 | -19.9 |  | 20.6 µM [rising, single point] |
| Cc1ccc(Nc2cnn(C34CC5CC(CC(CC(=O)O)(C5)C3)C4)c(=O)c2Cl)cc1 | -9.44 |  | 29.1 µM [falling, single point] |
| CCOc1ccccc1NC(=O)C1CCCCN1S(=O)(=O)c1ccccc1 (stereo not drawn) | -12.2 |  |  |
| N=c1c2c(-c3ccccc3)c(-c3ccccc3)n(Cc3ccccc3)c2ncn1CCO | 7.75 |  | 4.11 µM [falling, partial curve, poor fit] |
| O=C(NCc1cccs1)c1cc(S(=O)(=O)N2CCOCC2)ccc1N1CCCC1 | 12.5 |  |  |
| O=C(COC(=O)c1cc(S(=O)(=O)N2CCc3ccccc3C2)ccc1Cl)NCc1ccco1 | 32.5 | 23.1 µM [rising, single point] | 18.4 µM [rising, single point] |
| O=C(NCCSCc1ccccc1)c1ccc(C2SCC(=O)N2Cc2ccccc2)cc1 (stereo not drawn) | -39.4 | 20.6 µM [falling, single point] | 0.731 µM [rising, single point] |
| Cc1ccc(S(=O)(=O)N2CCC(C(=O)N3CCCC(C(F)(F)F)C3)CC2)cc1C (stereo not drawn) | -21.5 |  | 0.651 µM [rising, full curve, poor fit] |
| CCn1nnc(-c2ccccc2NC(=O)C(F)(F)F)n1 | 68.2 | 14.6 µM [rising, partial curve] | 29.1 µM [rising, single point] |
| Cc1ccc2[nH]c3c(c2c1)CCN(C)C3 | 5.22 |  | 4.61 µM [rising, full curve, poor fit] |
| COc1ccccc1Nc1nc(N)nc(-c2cc3ccccc3o2)n1 | 115 | 20.6 µM [rising, single point] | 2.91 µM [rising, partial curve] |
| CN1CCN(S(=O)(=O)Cc2ccccc2Cl)CC1 | -13.9 |  | 0.206 µM [falling, full curve, poor fit] |
| O=[N+]([O-])c1ccc(-[n+]2ccc3ccccc3c2)c([N+](=O)[O-])c1 | -60.1 | 18.4 µM [falling, partial curve] | 0.82 µM [rising, partial curve, poor fit] |
| O=C(/C=C/c1ccco1)NC(=S)Nc1ccc(Cl)cn1 | 29.9 |  | 6.51 µM [rising, partial curve, poor fit] |

Gathered by group, the compounds so far containing an aryl methoxy group (3)

| SMILES | cell number change [%] | AC50 [1] | AC50 [2] |
| --- | --- | --- | --- |
| COc1ccc(-c2nc3ccccc3c(=O)n2-c2c(C)n(C)n(-c3ccccc3)c2=O)cc1 | 6.47 | 0.461 µM [rising, partial curve, poor fit] |  |
| COc1cccc(CNC(=O)C2CCN(S(=O)(=O)c3cnc[nH]3)CC2)c1 | 0.135 |  | 0.0517 µM [falling, full curve, poor fit] |
| COc1ccccc1Nc1nc(N)nc(-c2cc3ccccc3o2)n1 | 115 | 20.6 µM [rising, single point] | 2.91 µM [rising, partial curve] |

Carrying on:

| SMILES | cell number change [%] | AC50 [1] | AC50 [2] |
| --- | --- | --- | --- |
| CN(C(=O)COC(=O)C1CCN(S(=O)(=O)c2ccc3c(c2)OCCO3)CC1)C1CCS(=O)(=O)C1 (stereo not drawn) | -26 |  | 0.326 µM [falling, full curve] |
| O=C(NCc1nc(-c2ccccc2)cs1)c1ccccc1 | -8 |  | 0.164 µM [falling, full curve, poor fit] |
| CC1CCCC(C)N1C(=O)COc1ccc(-c2nnco2)cc1 (stereo not drawn) | 26.7 |  | 20.6 µM [rising, single point] |
| O=C(NCCc1ccc(Cl)cc1)C1CCCN1C(=O)NCc1ccccc1 (stereo not drawn) | -9.52 |  | 0.00461 µM [falling, full curve, poor fit] |
| CC(C)Nc1ccc(C(CC(N)=O)NC(=O)c2ccccc2)cc1[N+](=O)[O-] (stereo not drawn) | -6.89 |  | 32.6 µM [falling, single point] |
| COc1ccc(N=Cc2oc3ccc4ccccc4c3c2O)cc1 | 22.8 |  | 29.1 µM [falling, single point] |
| CC(C)(C)OC(=O)N[C@H](C(=O)OC(C)(C)C)c1ccc(Br)cc1 | -34.8 | 6.51 µM [falling, single point] | 5.8 µM [falling, single point] |
| O=C(Nc1ccc(F)cc1)c1ccc(S(=O)(=O)NCc2cccnc2)cc1 | -32.4 | 0.164 µM [falling, full curve, poor fit] |  |
| COc1ccc(Cl)cc1S(=O)(=O)N1CCC(C(=O)NC2CCCC2)CC1 | -18.3 |  |  |
| Cc1cccc([N+](=O)[O-])c1NC(=O)COC(=O)C1CCCO1 (stereo not drawn) | 3.18 |  | 0.461 µM [rising, single point] |
| COc1ccc(-c2csc3nc(-c4ccc(C)cc4)oc(=O)c23)cc1OC | -4.52 |  |  |
| Cc1ccc(S(=O)(=O)Nc2cc3c(C(=O)Nc4ccccc4)c(C)oc3c3ccccc23)cc1 | -54.7 | 7.31 µM [falling, partial curve] | 6.51 µM [falling, full curve] |
| COc1cccc(-c2nnc(SCC(=O)Nc3ccc(S(N)(=O)=O)cc3)n2C)c1 | -3.92 | 0.146 µM [falling, full curve, poor fit] | 18.4 µM [falling, single point] |
| COc1ccc(-n2c(=S)[nH]c3cc(C(=O)NCc4ccc(F)cc4)ccc3c2=O)c(OC)c1 | 1.35 |  | 0.651 µM [rising, partial curve, poor fit] |
| Cc1ccccc1OCC(=O)OCC(=O)NCc1ccco1 | -12.7 |  | 29.1 µM [rising, single point] |
| O=C(Cc1c(F)cccc1Cl)Nc1ccccc1-c1ccccc1 | 27.4 |  | 16.4 µM [rising, partial curve] |
| CCOC(=O)N1CCN(C(=O)CN(C2CCCCC2)S(=O)(=O)c2c(C)cc(C)cc2C)CC1 | 53.2 | 14.6 µM [rising, partial curve] | 23.1 µM [falling, single point] |
| COc1ccc2cc(C3NC(=O)c4ccccc4N3)c(Cl)nc2c1 (stereo not drawn) | 6.41 | 0.146 µM [falling, full curve, poor fit] | 0.103 µM [falling, full curve, poor fit] |
